The source of these data is article PMC10699776.

By UniProt entry, the sequences of proteins in these tests, tags left out. Where a name states a change or a piece, a line headed by the entry shows the natural chain unless it says otherwise.
UniProt Q9Y4B4: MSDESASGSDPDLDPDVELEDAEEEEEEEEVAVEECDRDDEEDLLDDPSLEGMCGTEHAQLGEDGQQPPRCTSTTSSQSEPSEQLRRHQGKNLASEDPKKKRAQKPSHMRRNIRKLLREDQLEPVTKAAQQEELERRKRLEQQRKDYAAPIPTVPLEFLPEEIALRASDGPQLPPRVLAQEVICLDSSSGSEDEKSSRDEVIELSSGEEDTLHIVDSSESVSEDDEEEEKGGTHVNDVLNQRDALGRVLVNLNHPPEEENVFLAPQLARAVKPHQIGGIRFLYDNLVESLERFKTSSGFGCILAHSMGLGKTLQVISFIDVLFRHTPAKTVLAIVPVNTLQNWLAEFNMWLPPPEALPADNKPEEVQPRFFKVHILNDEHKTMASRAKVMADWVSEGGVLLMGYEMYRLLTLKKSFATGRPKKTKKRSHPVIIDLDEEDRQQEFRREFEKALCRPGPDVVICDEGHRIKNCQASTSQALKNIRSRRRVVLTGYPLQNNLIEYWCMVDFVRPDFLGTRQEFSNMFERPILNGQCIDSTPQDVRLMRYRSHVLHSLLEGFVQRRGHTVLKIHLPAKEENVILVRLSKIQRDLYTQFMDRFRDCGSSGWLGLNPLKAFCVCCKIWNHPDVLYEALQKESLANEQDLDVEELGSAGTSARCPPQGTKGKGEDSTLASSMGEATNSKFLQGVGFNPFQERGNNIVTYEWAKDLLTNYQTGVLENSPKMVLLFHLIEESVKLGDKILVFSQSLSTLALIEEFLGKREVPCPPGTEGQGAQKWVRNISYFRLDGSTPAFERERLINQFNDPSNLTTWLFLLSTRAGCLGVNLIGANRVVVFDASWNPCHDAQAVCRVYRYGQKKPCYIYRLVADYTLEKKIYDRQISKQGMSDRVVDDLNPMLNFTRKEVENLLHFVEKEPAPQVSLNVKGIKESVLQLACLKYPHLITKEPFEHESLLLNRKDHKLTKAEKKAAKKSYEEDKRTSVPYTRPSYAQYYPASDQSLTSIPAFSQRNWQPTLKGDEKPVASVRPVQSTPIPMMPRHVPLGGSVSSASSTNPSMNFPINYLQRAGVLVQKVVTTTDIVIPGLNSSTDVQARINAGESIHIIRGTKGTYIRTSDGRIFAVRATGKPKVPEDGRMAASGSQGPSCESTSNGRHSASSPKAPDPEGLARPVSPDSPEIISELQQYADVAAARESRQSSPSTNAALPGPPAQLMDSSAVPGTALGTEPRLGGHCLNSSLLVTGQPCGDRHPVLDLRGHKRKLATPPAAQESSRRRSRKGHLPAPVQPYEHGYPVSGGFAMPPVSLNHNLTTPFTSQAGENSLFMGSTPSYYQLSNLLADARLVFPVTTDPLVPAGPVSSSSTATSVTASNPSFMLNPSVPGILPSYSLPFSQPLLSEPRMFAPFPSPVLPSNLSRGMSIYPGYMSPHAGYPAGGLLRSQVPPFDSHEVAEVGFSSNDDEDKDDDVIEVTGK
UniProt Q02880: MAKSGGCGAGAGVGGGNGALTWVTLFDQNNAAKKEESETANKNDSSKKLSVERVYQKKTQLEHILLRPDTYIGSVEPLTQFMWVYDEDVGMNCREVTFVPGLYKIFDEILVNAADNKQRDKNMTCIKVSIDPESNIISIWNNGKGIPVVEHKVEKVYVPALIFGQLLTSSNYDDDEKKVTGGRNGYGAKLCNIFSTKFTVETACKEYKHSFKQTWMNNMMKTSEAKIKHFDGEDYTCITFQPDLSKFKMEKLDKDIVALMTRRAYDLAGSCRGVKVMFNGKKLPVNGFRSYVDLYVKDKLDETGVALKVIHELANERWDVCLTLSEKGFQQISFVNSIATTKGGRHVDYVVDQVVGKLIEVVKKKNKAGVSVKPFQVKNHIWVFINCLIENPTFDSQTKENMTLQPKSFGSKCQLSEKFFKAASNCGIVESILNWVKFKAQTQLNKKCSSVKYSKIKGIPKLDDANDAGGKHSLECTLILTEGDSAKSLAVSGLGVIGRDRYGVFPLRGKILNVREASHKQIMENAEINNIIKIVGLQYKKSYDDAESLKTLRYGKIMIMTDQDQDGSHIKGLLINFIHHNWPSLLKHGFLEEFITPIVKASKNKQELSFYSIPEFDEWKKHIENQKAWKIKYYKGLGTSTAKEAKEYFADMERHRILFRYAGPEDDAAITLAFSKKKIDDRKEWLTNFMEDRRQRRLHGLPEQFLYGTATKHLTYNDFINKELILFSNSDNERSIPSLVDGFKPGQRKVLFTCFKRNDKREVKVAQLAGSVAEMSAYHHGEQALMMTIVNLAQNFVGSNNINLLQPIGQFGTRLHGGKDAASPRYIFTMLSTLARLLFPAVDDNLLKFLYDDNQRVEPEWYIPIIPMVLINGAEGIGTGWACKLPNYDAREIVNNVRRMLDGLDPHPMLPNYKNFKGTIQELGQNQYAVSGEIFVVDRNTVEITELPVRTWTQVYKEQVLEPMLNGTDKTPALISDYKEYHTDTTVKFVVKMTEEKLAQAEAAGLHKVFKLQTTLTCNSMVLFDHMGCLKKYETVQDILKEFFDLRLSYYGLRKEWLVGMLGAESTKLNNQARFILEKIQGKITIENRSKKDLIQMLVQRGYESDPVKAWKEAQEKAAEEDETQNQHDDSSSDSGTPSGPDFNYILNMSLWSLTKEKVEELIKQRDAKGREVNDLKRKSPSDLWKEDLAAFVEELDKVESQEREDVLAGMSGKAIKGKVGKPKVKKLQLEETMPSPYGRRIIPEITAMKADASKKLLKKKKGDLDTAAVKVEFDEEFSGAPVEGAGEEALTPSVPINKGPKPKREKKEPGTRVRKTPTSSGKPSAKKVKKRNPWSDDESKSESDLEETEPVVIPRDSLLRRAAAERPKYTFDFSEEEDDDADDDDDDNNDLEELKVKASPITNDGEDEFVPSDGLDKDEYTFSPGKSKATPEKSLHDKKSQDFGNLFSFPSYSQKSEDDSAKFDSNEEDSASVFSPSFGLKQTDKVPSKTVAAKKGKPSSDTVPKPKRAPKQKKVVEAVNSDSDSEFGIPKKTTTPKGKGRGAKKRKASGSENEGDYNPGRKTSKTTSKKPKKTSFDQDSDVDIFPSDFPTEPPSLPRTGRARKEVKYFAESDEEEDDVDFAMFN

No constants are given. Whether binding was seen depends on the method and setting. In cells and extracts the contact can be indirect. Binding can be weak; no strength is given.

For the assay, the target named is mCherry-RAD54L2^ΔSIM mutant (UniProt Q9Y4B4). Put plainly: co-IP; mCherry IP on RFP-Trap magnetic beads, 2 hours at 4°C, from benzonase-treated extracts of RPE-1 cells, untreated or treated with 100 μM etoposide for 1 hour (also G1- or S-phase synchronized cells); IP buffer 20 mM tris-HCl pH 7.5, 150 mM NaCl, 2 mM MgCl2, 10% glycerol, 0.5% NP-40, 20 mM NEM; Western blot.

Consider “Topoisomerase 2β (TOP2β) (from UniProt Q02880 1-1626) (enzyme)”, for which the binding entry is “binds”.
